Structures can show the parent of a compound that is named as a salt. Some entries share one result that the patent states for a list of compounds.
How the values were obtained:
human H1 receptor = molecular target: T1, human H1 receptor (Homo sapiens, UniProt P35367); test: Histamine H1 functional antagonist assay; assay type: cell-based; conditions: FLIPR, CHO cells expressing human H1 receptor, histamine at EC80; Cheng-Prusoff; averages of a number of experiments
T1 construct: expressed in transfected cells

Sequences of proteins named here, by UniProt entry; tags and fusion partners are left off. A change or cut given only in a name is not applied to a line headed by its entry.
UniProt P35367, whole entry: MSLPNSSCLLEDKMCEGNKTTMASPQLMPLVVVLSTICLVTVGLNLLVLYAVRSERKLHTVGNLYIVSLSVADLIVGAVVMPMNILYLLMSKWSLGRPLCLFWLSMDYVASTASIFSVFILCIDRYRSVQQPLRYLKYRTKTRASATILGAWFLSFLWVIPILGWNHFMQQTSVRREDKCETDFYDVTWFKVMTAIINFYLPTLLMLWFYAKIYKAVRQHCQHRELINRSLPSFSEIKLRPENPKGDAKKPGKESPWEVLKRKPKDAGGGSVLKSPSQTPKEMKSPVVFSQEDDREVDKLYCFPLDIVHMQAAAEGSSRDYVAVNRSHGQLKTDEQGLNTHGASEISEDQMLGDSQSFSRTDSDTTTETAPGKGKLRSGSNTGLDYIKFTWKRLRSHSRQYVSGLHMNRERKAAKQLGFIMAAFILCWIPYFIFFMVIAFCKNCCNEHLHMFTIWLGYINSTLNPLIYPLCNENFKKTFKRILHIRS
UniProt Q9Y5N1: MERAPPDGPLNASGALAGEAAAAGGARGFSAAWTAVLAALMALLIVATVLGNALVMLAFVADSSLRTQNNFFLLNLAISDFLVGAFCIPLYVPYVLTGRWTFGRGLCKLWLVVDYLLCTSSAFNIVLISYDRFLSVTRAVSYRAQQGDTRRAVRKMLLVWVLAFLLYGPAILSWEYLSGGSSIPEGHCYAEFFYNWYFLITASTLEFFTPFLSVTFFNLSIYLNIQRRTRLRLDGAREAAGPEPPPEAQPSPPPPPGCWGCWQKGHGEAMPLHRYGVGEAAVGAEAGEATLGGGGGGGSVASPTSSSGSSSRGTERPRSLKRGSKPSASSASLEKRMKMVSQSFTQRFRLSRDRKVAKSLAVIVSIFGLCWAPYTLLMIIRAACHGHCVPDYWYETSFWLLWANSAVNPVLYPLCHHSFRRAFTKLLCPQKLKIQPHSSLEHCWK

histamine H3 receptor = molecular target: T2, histamine H3 receptor (Homo sapiens, UniProt Q9Y5N1); test: Histamine H3 functional antagonist assay (method B); assay type: biochemical; conditions: [35S]-GTPγS SPA, membrane prepared from cultured H3 cells, histamine at EC80, averages of a number of experiments
T2 construct: expressed in transfected cells; host or cells: CHO K1 cells (pSwitch/pGene GeneSwitch system, mifepristone-induced), clone 3H3; membranes
Source text: A membrane preparation containing histamine H3 receptors may be prepared in accordance with the following procedures:
(i) Generation of Histamine H3 Cell Line
DNA encoding the human histamine H3 gene (Huvar, A. et al. (1999) Mol. Pharmacol. 55(6), 1101-1107) was cloned into a holding vector, pcDNA3.1 TOPO (InVitrogen) and its cDNA was isolated from this vector by restriction digestion of plasmid DNA with the enzymes BamH1 and Not-1 and ligated into the inducible expression vector pGene (InVitrogen) digested with the same enzymes. The GeneSwitch™ system (a system where in transgene expression is switched off in the absence of an inducer and switched on in the presence of an inducer) was performed as described in U.S. Pat. Nos. 5,364,791; 5,874,534; and 5,935,934. Ligated DNA was transformed into competent DH5α E. coli host bacterial cells and plated onto Luria Broth (LB) agar containing Zeocin™ (an antibiotic which allows the selection of cells expressing the sh ble gene which is present on pGene and pSwitch) at 50 μg ml^−1. Colonies containing the re-ligated plasmid were identified by restriction analysis. DNA for transfection into mammalian cells was prepared from 250 ml cultures of the host bacterium containing the pGeneH3 plasmid and isolated using a DNA preparation kit (Qiagen Midi-Prep) as per manufacturers guidelines (Qiagen).
CHO K1 cells previously transfected with the pSwitch regulatory plasmid (InVitrogen) were seeded at 2×10e6 cells per T75 flask in Complete Medium, containing Hams F12 (GIBCOBRL, Life Technologies) medium supplemented with 10% v/v dialysed foetal bovine serum, L-glutamine, and hygromycin (100 μg ml^−1), 24 hours prior to use. Plasmid DNA was transfected into the cells using Lipofectamine plus according to the manufacturers guidelines (InVitrogen). 48 hours post transfection cells were placed into complete medium supplemented with 500 μg ml^−1 Zeocin™.
10-14 days post selection 10 nM Mifepristone (InVitrogen), was added to the culture medium to induce the expression of the receptor. 18 hours post induction cells were detached from the flask using ethylenediamine tetra-acetic acid (EDTA; 1:5000; InVitrogen), following several washes with phosphate buffered saline pH 7.4 and resuspended in Sorting Medium containing Minimum Essential Medium (MEM), without phenol red, and supplemented with Earles salts and 3% Foetal Clone II (Hyclone). Approximately 1×10e7 cells were examined for receptor expression by staining with a rabbit polyclonal antibody, 4a, raised against the N-terminal domain of the histamine H3 receptor, incubated on ice for 60 minutes, followed by two washes in sorting medium. Receptor bound antibody was detected by incubation of the cells for 60 minutes on ice with a goat anti rabbit antibody, conjugated with Alexa 488 fluorescence marker (Molecular Probes). Following two further washes with Sorting Medium, cells were filtered through a 50 μm Filcon™ (BD Biosciences) and then analysed on a FACS Vantage SE Flow Cytometer fitted with an Automatic Cell Deposition Unit. Control cells were non-induced cells treated in a similar manner. Positively stained cells were sorted as single cells into 96-well plates, containing Complete Medium containing 500 μg ml^−1 Zeocin™ and allowed to expand before reanalysis for receptor expression via antibody and ligand binding studies. One clone, 3H3, was selected for membrane preparation.
(ii) Membrane Preparation from Cultured Cells
All steps of the protocol are carried out at 4° C. and with pre-cooled reagents. The cell pellet is resuspended in 10 volumes of homogenisation buffer (50 mM N-2-hydroxyethylpiperazine-N′-2-ethanesulfonic acid (HEPES), 1 mM ethylenediamine tetra-acetic acid (EDTA), pH 7.4 with KOH, supplemented with 10e-6M leupeptin (acetyl-leucyl-leucyl-arginal; Sigma L2884), 25 μg/ml bacitracin (Sigma B0125), 1 mM phenylmethylsulfonyl fluoride (PMSF) and 2×10e-6M pepstain A (Sigma)). […]

Row | functional pKi (fpKi), antagonism (human H1 receptor) | functional pKi (fpKi), antagonism (histamine H3 receptor) | Structure (SMILES)
1 | < 6.5 | – | CC(=O)c1ccc(N2CC[C@H](C(=O)N3CCCN(C4CCC4)CC3)C2)cc1.Cl (single isomer, unassigned) [Example E21B]
2 | < 6.5 | > 8.0 | Cc1noc(-c2ccc(N3CC[C@H](C(=O)N4CCN(C(C)C)CC4)C3)c(F)c2)n1 [Example E25, 1-({(3S)-1-[2-Fluoro-4-(3-methyl-1,2,4-oxadiazol-5-yl)phenyl]-3-pyrrolidinyl}carbonyl)-4-(1-methylethyl)piperazine]
3 | < 6.5 | – | Cl.O=C([C@@H]1CCN(c2ccc(C(F)(F)F)nc2)C1)N1CCCN(C2CCC2)CC1 (single isomer, unassigned) [Example E17A]
4 | < 6.5 | > 8.0 | CCc1noc(-c2ccc(N3CC[C@H](C(=O)N4CCCN(C(C)C)CC4)C3)cc2)n1.Cl [Example E48, 1-({(3S)-1-[4-(3-Ethyl-1,2,4-oxadiazol-5-yl)phenyl]-3-pyrrolidinyl}carbonyl)-4-(1-methylethyl)hexahydro-1H-1,4-diazepine hydrochloride]
5 | < 6.5 | – | Cc1noc(-c2ccc(N3CCC(C(=O)N4CCCN(C5CCC5)CC4)C3)cc2)n1.Cl (racemic) [Example E18, (R,S)-1-Cyclobutyl-4-({1-[4-(3-methyl-1,2,4-oxadiazol-5-yl)phenyl]-3-pyrrolidinyl}carbonyl)hexahydro-1H-1,4-diazepine]
6 | < 6.5 | – | Cc1noc(-c2ccc(N3CC[C@@H](C(=O)N4CCCN(C5CCC5)CC4)C3)c(F)c2)n1.Cl (single isomer, unassigned) [Example E20A]
7 | < 6.5 | > 8.0 | Cc1noc(-c2ccc(N3CC[C@@H](C(=O)N4CCN(C5CCC5)CC4)C3)cc2)n1 [Example E39, 1-Cyclobutyl-4-({(3R)-1-[4-(3-methyl-1,2,4-oxadiazol-5-yl)phenyl]-3-pyrrolidinyl}carbonyl)piperazine]
8 | < 6.5 | > 8.0 | CCC(CC)N1CCN(C(=O)[C@H]2CCN(c3ccc(-c4nc(C)no4)cc3)C2)CC1 [Example E9, 1-(1-Ethylpropyl)-4-({(3S)-1-[4-(3-methyl-1,2,4-oxadiazol-5-yl)phenyl]-3-pyrrolidinyl}carbonyl)piperazine]
9 | < 6.5 | > 8.0 | CC(C)N1CCN(C(=O)[C@H]2CCN(c3cccc(C#N)c3)C2)CC1.Cl [Example E35, 3-((3S)-3-{[4-(1-Methylethyl)-1-piperazinyl]carbonyl}-1-pyrrolidinyl)benzonitrile hydrochloride]
10 | < 6.5 | > 8.0 | Cc1nccn1-c1ccc(N2CC[C@H](C(=O)N3CCN(C(C)C)CC3)C2)cc1 [Example E56, 1-(1-Methylethyl)-4-({(3S)-1-[4-(2-methyl-1H-imidazol-1-yl)phenyl]-3-pyrrolidinyl}carbonyl)piperazine dihydrochloride]
11 | < 6.5 | > 8.0 | CC(C)N1CCN(C(=O)[C@H]2CCN(c3ccc(-n4ccnc4)cc3)C2)CC1 [Example E43, 1-({(3S)-1-[4-(1H-imidazol-1-yl)phenyl]-3-pyrrolidinyl}carbonyl)-4-(1-methylethyl)piperazine]
12 | < 6.5 | > 8.0 | CCC(=O)c1ccc(N2CC[C@H](C(=O)N3CCN(C(C)C)CC3)C2)cc1.Cl [Example E50, 1-[4-((3S)-3-{[4-(1-Methylethyl)-1-piperazinyl]carbonyl}-1-pyrrolidinyl)phenyl]-1-propanone hydrochloride]
13 | < 6.5 | – | Cc1noc(-c2ccc(N3CCC(C(=O)N4CCCN(C5CCC5)CC4)C3)c(F)c2)n1.Cl (racemic) [Example E20, (R,S)-1-Cyclobutyl-4-({1-[2-fluoro-4-(3-methyl-1,2,4-oxadiazol-5-yl)phenyl]-3-pyrrolidinyl}carbonyl)hexahydro-1H-1,4-diazepine]
14 | < 6.5 | – | Cc1ccc2cc(N3CCC(C(=O)N4CCCN(C5CCC5)CC4)C3)ccc2n1.Cl (racemic) [Example E19, (R,S)-6-{3-[(4-Cyclobutylhexahydro-1H-1,4-diazepin-1-yl)carbonyl]-1-pyrrolidinyl}-2-methylquinoline]
15 | < 6.5 | – | Cc1ccc2cc(N3CC[C@H](C(=O)N4CCCN(C5CCC5)CC4)C3)ccc2n1.Cl (single isomer, unassigned) [Example E19B]
16 | < 6.5 | – | Cl.O=C([C@H]1CCN(c2ccc(C(F)(F)F)nc2)C1)N1CCCN(C2CCC2)CC1 (single isomer, unassigned) [Example E17B]
17 | < 6.5 | – | Cc1ccc2cc(N3CC[C@@H](C(=O)N4CCCN(C5CCC5)CC4)C3)ccc2n1.Cl (single isomer, unassigned) [Example E19A]
18 | < 6.5 | – | Cc1noc(-c2ccc(N3CC[C@H](C(=O)N4CCCN(C5CCC5)CC4)C3)cc2)n1.Cl (single isomer, unassigned) [Example E18B]
19 | < 6.5 | – | Cc1noc(-c2ccc(N3CC[C@H](C(=O)N4CCN(C(C)C)[C@@H](C)C4)C3)cc2)n1 [Example E6, (2S)-2-Methyl-1-(1-methylethyl)-4-({(3S)-1-[4-(3-methyl-1,2,4-oxadiazol-5-yl)phenyl]-3-pyrrolidinyl}carbonyl)piperazine]
20 | < 6.5 | – | O=C(C1CCN(c2ccc(C(F)(F)F)nc2)C1)N1CCCN(C2CCC2)CC1 (racemic) [Example E17, (R,S)-1-Cyclobutyl-4-({1-[6-(trifluoromethyl)-3-pyridinyl]-3-pyrrolidinyl}carbonyl)hexahydro-1H-1,4-diazepine]
21 | < 6.5 | – | CC(=O)c1ccc(N2CC[C@@H](C(=O)N3CCCN(C4CCC4)CC3)C2)cc1.Cl (single isomer, unassigned) [Example E21A]
22 | < 6.5 | – | CC(C)N1CCCN(C(=O)C2CCN(c3ccc(C(F)(F)F)nc3)C2)CC1.Cl (racemic) [Example E22, (R,S)-1-(1-Methylethyl)-4-({(1-[6-(trifluoromethyl)-3-pyridinyl]-3-pyrrolidinyl}carbonyl)hexahydro-1H-1,4-diazepine hydrochloride]
23 | < 6.5 | – | CC(=O)c1ccc(N2CCC(C(=O)N3CCCN(C4CCC4)CC3)C2)cc1.Cl (racemic) [Example E21, (R,S)-1-(4-{3-[(4-Cyclobutylhexahydro-1H-1,4-diazepin-1-yl)carbonyl]-1-pyrrolidinyl}phenyl)ethanone]
24 | < 6.5 | – | Cc1noc(-c2ccc(N3CC[C@H](C(=O)N4CCCN(C5CCC5)CC4)C3)c(F)c2)n1.Cl (single isomer, unassigned) [Example E20B]
25 | < 6.5 | – | Cc1noc(-c2ccc(N3CC[C@@H](C(=O)N4CCCN(C5CCC5)CC4)C3)cc2)n1.Cl (single isomer, unassigned) [Example E18A]
26 | < 6.5 | – | Cc1nc(-c2ccc(N3CC[C@H](C(=O)N4CCN(C(C)C)CC4)C3)cc2)co1 [Example E32A, 1-(1-Methylethyl)-4-({(3S)-1-[4-(2-methyl-1,3-oxazol-4-yl)phenyl]-3-pyrrolidinyl}carbonyl)piperazine]
